# In the supplement of paper PMC7666118:
# The chains behind the UniProt entries cited, without tags or fusion partners. Where a name states a change or a piece, a line headed by the entry shows the natural chain unless it says otherwise.
# UniProt Q9UHJ6: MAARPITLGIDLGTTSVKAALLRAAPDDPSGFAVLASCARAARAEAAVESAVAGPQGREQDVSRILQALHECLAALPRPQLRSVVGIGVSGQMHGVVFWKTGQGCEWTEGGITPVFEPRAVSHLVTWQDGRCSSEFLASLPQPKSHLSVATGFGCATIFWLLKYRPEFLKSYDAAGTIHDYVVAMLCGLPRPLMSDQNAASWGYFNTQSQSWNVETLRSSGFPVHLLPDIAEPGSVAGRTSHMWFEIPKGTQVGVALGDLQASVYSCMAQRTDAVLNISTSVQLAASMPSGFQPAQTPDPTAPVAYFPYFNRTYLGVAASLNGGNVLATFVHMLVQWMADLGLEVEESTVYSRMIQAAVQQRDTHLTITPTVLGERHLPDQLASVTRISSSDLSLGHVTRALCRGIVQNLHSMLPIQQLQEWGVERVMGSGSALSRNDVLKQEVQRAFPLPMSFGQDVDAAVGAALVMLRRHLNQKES
# UniProt Q8TAD4: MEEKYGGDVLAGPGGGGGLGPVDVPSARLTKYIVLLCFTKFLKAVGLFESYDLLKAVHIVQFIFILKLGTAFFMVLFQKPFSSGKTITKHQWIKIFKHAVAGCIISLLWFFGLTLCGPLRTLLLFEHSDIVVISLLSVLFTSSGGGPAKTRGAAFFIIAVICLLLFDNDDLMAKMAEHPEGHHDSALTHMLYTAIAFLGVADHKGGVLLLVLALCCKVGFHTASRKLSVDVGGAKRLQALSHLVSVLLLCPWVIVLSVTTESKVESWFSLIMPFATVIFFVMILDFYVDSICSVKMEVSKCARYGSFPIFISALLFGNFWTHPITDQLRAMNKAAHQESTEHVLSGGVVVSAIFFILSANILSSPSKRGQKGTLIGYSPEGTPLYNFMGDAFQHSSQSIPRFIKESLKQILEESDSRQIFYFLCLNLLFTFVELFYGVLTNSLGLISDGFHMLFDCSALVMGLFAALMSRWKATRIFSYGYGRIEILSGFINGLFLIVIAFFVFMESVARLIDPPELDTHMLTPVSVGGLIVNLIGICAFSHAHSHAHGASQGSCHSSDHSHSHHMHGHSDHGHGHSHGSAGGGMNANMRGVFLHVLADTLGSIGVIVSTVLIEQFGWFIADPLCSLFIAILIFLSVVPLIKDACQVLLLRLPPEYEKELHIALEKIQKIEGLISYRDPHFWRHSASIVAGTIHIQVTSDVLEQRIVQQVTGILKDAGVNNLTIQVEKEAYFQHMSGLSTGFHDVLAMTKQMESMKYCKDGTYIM
# UniProt Q99643: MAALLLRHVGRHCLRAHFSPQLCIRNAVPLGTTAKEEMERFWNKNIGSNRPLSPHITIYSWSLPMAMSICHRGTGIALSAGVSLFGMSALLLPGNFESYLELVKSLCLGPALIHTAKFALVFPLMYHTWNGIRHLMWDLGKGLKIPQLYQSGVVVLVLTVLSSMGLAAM
# UniProt Q86SQ7: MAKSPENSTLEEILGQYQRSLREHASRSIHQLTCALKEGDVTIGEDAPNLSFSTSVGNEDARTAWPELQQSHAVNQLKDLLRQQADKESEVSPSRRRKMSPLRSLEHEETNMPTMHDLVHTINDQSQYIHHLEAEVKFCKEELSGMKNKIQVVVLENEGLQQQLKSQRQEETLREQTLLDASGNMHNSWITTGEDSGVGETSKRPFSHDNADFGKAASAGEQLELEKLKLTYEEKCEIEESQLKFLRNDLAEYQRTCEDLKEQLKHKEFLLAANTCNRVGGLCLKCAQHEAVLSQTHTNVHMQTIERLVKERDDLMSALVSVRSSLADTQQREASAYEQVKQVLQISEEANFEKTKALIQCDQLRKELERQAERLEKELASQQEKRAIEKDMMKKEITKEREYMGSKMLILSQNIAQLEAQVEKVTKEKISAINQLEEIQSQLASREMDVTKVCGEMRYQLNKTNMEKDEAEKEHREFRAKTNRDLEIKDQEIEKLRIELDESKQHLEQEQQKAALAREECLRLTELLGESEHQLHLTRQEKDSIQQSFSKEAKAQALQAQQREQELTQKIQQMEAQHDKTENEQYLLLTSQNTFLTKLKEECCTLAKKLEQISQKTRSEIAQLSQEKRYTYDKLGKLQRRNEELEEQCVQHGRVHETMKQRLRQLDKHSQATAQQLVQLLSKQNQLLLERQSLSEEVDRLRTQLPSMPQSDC
# UniProt Q99470: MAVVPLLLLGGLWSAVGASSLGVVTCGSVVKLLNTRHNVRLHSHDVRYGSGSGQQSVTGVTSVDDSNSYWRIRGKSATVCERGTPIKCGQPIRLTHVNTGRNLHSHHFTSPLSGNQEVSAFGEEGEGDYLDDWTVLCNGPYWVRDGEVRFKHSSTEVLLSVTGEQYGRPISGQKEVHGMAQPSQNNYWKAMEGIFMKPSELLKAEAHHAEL
# UniProt Q15437: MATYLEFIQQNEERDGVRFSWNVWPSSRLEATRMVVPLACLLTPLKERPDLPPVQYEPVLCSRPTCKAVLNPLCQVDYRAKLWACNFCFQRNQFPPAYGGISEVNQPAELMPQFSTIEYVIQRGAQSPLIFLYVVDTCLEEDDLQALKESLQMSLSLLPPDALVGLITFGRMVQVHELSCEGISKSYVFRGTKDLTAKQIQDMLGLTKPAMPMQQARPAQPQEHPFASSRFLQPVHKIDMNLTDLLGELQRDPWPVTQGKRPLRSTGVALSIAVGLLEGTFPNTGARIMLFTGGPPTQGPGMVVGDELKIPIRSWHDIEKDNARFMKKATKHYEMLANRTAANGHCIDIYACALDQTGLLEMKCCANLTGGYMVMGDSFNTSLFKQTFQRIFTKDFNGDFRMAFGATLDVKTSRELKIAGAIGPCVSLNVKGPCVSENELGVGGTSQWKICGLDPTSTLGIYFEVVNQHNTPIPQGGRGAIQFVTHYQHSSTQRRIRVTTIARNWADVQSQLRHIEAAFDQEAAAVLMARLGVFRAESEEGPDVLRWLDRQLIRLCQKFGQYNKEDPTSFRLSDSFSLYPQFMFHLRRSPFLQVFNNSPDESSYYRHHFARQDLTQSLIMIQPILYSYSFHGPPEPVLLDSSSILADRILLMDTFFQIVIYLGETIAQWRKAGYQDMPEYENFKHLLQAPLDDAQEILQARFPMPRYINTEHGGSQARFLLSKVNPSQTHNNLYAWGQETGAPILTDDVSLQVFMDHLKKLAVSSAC
# UniProt Q9H3S1: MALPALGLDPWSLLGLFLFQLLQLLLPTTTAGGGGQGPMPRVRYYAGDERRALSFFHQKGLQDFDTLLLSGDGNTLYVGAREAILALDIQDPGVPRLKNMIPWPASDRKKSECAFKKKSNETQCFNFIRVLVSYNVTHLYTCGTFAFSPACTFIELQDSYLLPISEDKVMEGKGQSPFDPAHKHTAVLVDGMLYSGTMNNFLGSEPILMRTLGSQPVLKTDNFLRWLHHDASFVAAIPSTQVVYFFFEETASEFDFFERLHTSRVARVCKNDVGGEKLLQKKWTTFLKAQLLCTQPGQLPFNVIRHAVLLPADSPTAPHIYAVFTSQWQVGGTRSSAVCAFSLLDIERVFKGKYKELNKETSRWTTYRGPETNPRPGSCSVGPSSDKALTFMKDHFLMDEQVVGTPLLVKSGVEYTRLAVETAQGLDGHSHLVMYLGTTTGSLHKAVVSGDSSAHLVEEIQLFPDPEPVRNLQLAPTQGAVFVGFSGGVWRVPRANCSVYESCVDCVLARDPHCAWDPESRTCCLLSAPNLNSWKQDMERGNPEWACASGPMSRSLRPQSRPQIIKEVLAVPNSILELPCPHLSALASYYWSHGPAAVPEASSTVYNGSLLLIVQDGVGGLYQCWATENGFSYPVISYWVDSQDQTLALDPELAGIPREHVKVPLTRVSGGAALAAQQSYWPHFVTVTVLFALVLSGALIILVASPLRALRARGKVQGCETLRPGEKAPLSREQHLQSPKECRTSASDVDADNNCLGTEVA
# UniProt P04920: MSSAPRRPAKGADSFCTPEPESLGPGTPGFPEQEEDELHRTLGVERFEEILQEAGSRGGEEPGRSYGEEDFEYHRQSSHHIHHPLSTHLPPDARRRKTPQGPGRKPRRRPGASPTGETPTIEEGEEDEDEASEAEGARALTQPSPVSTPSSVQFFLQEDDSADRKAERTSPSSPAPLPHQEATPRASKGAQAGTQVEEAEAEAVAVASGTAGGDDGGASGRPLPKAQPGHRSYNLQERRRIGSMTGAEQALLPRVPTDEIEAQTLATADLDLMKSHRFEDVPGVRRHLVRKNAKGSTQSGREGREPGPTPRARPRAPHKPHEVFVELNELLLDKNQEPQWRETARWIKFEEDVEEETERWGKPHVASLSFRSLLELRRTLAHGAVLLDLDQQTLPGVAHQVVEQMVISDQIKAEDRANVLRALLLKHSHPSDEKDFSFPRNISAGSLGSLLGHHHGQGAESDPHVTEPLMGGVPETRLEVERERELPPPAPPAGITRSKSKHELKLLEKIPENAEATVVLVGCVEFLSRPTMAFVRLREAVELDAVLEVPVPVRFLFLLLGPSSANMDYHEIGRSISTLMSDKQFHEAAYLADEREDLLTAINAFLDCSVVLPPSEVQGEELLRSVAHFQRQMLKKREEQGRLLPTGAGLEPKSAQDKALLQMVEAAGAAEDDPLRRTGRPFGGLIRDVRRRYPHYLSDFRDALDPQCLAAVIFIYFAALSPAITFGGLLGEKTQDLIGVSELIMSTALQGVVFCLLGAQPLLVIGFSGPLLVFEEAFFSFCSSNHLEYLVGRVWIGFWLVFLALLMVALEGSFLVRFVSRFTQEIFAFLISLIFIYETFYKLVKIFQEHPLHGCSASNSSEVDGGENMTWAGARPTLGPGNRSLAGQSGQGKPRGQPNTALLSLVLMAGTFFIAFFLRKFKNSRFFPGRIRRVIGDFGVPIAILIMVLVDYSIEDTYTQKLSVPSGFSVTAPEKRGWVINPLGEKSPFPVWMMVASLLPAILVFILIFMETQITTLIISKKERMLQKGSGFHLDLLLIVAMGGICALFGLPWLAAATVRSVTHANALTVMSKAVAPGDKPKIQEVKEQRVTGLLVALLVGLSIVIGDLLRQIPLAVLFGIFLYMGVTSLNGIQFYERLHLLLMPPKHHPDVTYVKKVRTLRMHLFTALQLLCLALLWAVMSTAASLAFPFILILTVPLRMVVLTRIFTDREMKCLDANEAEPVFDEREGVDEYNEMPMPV
# UniProt O14975, whole entry, looked up: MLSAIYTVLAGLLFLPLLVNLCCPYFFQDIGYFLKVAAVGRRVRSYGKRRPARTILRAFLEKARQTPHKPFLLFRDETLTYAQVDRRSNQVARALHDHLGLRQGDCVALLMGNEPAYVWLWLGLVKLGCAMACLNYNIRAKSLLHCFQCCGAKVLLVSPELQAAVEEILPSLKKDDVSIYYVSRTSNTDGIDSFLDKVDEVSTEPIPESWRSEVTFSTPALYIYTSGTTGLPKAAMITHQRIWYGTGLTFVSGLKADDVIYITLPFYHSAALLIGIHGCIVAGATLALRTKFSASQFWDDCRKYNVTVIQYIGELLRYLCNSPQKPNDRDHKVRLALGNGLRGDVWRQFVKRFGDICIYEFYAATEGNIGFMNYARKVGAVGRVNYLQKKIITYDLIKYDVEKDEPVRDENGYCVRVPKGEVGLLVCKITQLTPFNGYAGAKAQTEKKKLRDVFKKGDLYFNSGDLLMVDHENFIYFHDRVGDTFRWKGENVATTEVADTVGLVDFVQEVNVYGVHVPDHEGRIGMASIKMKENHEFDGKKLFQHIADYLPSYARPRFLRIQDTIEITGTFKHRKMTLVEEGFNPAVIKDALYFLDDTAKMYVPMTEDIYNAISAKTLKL
# UniProt P62341, whole entry: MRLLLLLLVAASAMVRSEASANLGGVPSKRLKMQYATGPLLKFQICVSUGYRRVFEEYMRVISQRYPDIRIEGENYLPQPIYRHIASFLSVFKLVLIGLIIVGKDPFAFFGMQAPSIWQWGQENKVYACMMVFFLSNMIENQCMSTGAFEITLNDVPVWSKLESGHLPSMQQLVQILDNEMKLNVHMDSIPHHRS
# UniProt Q96EE3: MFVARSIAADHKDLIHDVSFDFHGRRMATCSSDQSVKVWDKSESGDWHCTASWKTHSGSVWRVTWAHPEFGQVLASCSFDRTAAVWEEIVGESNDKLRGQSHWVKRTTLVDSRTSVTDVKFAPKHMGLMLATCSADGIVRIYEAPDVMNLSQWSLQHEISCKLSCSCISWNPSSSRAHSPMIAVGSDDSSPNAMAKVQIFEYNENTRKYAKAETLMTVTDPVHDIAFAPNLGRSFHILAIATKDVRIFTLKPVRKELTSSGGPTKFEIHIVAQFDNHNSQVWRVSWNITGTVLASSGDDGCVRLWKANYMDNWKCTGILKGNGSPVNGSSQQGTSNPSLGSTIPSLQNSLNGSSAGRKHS
# UniProt Q02978: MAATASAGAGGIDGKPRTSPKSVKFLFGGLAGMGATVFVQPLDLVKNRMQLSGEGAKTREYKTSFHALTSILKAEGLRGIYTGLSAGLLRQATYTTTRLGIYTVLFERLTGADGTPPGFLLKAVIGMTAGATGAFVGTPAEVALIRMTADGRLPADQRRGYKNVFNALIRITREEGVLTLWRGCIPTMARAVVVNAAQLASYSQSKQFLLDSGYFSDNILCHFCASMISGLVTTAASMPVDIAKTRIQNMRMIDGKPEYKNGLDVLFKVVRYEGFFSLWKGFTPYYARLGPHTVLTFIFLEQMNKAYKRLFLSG
# The list shows a part of the results.
# Compound: COc1ccc(Cn2ccc3ccc(C(=O)NO)cc32)cc1
# Assay: dose-dependent thermal stabilisation call (2D-TPP, DLPTP, 10% FDR) (binary (1 = stabilised)); higher = stabilised by the compound
# Conditions: system: HL-60 intact cells; concentration range 0.04-10 µM
row,Target,dose-dependent thermal stabilisation call
1,SIPA1 (UniProt Q96FS4),inactive: 0
2,SHPK (UniProt Q9UHJ6),inactive: 0
3,SLC30A5 (UniProt Q8TAD4),inactive: 0
4,SLC43A3 (UniProt Q8NBI5),inactive: 0
5,SETX (UniProt Q7Z333),inactive: 0
6,SDCCAG1 (UniProt O60524),inactive: 0
7,SLC16A1 (UniProt P53985),inactive: 0
8,SH3GLB2 (UniProt Q9NR46),inactive: 0
9,SDHC (UniProt Q99643),inactive: 0
10,SLC6A9 (UniProt P48067),inactive: 0
11,SFRS2IP (UniProt Q99590),inactive: 0
12,SDCCAG8 (UniProt Q86SQ7),inactive: 0
13,SLC25A36 (UniProt Q96CQ1),inactive: 0
14,SLC35B2 (UniProt Q8TB61),inactive: 0
15,SLC25A26 (UniProt Q70HW3),inactive: 0
16,SDF2 (UniProt Q99470),inactive: 0
17,SLC25A44 (UniProt Q96H78),inactive: 0
18,SLC35C1 (UniProt Q96A29),inactive: 0
19,SEC23B (UniProt Q15437),inactive: 0

row,Target,dose-dependent thermal stabilisation call
1,SEMA4A (UniProt Q9H3S1),inactive: 0
2,SKIV2L2 (UniProt P42285),inactive: 0
3,SETD3 (UniProt Q86TU7),inactive: 0
4,SLC4A2 (UniProt P04920),inactive: 0
5,SLC29A2 (UniProt Q14542),inactive: 0
6,SC5DL (UniProt O75845),inactive: 0
7,SELK (UniProt Q9Y6D0),inactive: 0
8,SFRS6 (UniProt Q13247),inactive: 0
9,SLC27A2 (UniProt O14975),active: 1
10,SFRS9 (UniProt Q13242),inactive: 0
11,SELT (UniProt P62341),inactive: 0
12,SKIV2L (UniProt Q15477),inactive: 0
13,SEH1L (UniProt Q96EE3),inactive: 0
14,SIRT3 (UniProt Q9NTG7),inactive: 0
15,SLC25A11 (UniProt Q02978),inactive: 0
16,SLC25A16 (UniProt P16260),inactive: 0
17,SLC25A24 (UniProt Q6NUK1),inactive: 0
18,SLC39A3 (UniProt Q9BRY0),inactive: 0

# Part of the list above in a different format:
row | Target | dose-dependent thermal stabilisation call
9 | SLC27A2 (UniProt O14975) | active: 1
10 | SFRS9 (UniProt Q13242) | inactive: 0
11 | SELT (UniProt P62341) | inactive: 0
12 | SKIV2L (UniProt Q15477) | inactive: 0
13 | SEH1L (UniProt Q96EE3) | inactive: 0
14 | SIRT3 (UniProt Q9NTG7) | inactive: 0
15 | SLC25A11 (UniProt Q02978) | inactive: 0
16 | SLC25A16 (UniProt P16260) | inactive: 0
17 | SLC25A24 (UniProt Q6NUK1) | inactive: 0
